# The list shows a part of the results.
# Amino acid sequences for entries named in this document (tags omitted). A change or cut given only in a name is not applied to a line headed by its entry.
# UniProt Q9BQG0: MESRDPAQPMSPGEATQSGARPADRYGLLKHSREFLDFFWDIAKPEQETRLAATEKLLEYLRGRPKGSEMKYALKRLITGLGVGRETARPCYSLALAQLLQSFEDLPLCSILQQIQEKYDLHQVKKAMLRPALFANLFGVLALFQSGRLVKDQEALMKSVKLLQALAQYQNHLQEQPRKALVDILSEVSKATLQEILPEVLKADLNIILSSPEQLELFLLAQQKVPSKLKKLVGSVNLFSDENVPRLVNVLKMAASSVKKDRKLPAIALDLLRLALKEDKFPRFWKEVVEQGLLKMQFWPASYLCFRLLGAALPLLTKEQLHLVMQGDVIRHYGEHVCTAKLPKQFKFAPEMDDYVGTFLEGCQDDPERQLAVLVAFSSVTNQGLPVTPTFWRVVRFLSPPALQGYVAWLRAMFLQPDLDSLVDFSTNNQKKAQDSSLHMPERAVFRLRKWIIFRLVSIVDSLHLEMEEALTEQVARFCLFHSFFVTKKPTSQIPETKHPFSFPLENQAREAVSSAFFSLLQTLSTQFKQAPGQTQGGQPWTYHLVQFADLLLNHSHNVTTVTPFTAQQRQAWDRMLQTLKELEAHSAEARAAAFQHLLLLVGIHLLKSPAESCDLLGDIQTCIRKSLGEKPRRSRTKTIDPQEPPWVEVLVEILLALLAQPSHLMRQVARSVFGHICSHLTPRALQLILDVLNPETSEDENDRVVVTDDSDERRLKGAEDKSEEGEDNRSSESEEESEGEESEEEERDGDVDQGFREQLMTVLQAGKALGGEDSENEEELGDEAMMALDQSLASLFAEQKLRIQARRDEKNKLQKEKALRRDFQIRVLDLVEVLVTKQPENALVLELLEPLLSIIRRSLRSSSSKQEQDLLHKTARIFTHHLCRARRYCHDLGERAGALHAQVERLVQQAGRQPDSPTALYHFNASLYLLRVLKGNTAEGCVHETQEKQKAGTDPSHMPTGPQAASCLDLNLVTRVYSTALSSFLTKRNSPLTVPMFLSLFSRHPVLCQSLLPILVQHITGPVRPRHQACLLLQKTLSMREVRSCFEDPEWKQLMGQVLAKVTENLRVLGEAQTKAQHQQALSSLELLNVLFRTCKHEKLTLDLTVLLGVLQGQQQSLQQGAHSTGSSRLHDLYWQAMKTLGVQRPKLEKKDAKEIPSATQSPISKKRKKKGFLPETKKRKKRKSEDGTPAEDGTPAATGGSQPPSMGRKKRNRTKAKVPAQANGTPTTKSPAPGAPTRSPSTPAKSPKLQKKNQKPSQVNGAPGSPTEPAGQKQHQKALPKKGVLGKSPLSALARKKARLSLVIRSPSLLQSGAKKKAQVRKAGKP
# UniProt O75592: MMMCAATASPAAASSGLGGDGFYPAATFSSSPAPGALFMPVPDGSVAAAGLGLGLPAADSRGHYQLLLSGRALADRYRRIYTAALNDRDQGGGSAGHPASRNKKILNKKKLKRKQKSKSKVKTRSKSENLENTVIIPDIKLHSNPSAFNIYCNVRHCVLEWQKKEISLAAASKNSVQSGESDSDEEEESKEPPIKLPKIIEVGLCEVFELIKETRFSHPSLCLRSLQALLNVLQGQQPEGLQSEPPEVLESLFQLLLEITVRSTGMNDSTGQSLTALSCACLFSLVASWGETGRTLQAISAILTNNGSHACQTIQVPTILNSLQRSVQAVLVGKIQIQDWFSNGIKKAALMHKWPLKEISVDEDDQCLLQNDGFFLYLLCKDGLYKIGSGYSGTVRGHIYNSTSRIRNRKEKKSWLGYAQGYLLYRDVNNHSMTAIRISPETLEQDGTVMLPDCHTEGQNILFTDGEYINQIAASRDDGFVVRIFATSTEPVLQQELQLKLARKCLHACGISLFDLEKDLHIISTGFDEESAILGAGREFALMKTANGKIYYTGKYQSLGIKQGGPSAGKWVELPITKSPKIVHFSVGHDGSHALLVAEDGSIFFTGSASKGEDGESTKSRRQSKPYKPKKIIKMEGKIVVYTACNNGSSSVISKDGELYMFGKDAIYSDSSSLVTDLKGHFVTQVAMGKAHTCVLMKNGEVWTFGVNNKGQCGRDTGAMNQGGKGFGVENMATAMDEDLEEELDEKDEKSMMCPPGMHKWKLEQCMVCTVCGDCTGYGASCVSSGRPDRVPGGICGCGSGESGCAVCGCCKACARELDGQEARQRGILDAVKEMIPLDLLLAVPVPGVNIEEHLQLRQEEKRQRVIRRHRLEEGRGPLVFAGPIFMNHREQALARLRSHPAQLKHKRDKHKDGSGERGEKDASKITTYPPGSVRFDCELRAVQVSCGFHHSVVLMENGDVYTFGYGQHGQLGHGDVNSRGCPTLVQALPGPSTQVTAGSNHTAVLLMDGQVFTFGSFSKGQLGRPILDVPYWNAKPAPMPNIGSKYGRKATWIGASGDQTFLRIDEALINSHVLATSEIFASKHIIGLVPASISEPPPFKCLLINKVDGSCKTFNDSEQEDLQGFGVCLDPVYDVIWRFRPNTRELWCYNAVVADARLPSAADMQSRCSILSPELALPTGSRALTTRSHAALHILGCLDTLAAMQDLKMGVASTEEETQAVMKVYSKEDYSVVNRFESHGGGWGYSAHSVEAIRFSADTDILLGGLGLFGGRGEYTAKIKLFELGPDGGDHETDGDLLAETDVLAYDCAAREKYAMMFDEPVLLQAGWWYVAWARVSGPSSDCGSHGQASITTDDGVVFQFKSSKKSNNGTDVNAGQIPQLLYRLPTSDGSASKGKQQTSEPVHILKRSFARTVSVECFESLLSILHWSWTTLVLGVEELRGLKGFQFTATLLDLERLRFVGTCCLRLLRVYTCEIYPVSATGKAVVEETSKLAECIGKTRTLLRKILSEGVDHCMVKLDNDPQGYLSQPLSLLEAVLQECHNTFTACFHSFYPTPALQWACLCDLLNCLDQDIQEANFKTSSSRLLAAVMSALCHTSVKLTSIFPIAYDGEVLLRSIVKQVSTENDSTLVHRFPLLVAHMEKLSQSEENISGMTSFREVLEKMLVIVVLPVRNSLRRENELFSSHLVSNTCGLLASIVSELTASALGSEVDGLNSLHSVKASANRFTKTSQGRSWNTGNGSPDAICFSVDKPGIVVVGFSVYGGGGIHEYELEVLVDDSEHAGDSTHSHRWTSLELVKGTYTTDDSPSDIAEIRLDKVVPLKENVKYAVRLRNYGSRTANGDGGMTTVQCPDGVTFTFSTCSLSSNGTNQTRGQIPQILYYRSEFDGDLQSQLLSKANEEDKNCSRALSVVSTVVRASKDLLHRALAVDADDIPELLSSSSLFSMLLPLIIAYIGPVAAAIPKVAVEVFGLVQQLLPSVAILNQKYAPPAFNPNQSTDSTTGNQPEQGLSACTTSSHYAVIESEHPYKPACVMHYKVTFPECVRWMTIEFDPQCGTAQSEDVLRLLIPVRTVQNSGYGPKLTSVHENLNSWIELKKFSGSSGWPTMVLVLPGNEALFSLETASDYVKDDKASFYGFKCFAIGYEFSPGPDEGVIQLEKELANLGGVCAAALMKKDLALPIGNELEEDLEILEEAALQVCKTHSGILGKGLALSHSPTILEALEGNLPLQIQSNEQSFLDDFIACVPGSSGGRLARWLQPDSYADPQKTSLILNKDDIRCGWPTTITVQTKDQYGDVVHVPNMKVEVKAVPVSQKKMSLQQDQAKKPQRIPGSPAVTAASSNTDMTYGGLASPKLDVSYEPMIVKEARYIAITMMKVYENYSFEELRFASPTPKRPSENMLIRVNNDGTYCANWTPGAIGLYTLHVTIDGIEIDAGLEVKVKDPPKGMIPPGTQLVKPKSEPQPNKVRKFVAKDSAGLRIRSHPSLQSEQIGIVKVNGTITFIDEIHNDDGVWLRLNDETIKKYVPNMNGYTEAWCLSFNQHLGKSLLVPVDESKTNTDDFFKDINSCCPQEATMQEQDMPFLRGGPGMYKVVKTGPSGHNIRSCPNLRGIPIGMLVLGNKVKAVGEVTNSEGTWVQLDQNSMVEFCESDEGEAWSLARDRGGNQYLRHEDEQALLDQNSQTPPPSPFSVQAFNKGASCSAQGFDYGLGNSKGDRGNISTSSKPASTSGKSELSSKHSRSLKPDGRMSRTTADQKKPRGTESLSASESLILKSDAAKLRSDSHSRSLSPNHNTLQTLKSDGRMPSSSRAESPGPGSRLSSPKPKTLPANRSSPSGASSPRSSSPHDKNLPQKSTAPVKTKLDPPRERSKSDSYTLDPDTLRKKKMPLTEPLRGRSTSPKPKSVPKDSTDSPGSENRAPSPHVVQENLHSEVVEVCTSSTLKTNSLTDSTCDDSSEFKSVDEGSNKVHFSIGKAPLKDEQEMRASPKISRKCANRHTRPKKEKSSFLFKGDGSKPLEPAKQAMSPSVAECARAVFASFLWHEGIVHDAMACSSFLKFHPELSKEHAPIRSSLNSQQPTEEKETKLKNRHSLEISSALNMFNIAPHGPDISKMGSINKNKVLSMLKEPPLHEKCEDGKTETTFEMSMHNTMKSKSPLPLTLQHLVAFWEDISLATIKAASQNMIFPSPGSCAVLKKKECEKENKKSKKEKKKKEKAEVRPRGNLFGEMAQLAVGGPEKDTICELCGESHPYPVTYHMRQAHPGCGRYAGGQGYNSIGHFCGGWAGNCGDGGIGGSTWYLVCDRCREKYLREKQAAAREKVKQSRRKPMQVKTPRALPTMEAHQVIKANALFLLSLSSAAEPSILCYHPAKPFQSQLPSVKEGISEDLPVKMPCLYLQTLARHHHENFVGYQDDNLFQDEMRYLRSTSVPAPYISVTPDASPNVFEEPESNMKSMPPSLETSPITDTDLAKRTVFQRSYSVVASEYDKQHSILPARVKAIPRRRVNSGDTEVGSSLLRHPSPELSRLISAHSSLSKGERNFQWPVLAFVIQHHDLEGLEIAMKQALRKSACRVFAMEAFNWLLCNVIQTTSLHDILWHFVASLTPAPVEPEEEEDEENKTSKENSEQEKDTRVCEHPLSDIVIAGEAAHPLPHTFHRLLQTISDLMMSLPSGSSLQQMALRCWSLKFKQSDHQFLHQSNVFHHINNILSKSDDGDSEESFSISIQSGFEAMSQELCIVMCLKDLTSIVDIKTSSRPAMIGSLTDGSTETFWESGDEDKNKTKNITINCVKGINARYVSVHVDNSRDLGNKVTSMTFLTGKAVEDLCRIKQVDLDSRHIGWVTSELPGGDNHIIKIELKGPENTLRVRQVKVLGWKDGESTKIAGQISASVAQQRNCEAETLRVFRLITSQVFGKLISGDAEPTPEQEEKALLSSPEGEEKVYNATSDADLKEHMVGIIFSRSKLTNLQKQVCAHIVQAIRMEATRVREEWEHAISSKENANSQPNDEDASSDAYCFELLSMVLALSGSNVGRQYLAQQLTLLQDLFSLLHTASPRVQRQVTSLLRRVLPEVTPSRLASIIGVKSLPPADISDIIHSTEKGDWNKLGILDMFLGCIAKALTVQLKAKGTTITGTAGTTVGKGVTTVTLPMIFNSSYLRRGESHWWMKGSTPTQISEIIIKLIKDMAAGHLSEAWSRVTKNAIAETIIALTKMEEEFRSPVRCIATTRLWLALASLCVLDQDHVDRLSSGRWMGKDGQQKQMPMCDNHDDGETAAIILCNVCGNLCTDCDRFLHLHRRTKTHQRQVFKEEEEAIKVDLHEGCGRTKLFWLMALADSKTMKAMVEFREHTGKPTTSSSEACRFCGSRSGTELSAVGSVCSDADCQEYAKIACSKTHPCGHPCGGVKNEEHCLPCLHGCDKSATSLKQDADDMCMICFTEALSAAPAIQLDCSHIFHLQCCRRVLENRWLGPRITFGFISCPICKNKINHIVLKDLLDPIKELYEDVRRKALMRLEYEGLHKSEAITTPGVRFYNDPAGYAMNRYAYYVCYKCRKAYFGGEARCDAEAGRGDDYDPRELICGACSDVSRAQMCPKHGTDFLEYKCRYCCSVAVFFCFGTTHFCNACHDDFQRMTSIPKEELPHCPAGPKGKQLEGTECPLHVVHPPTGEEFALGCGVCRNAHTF
# UniProt Q9NVV4: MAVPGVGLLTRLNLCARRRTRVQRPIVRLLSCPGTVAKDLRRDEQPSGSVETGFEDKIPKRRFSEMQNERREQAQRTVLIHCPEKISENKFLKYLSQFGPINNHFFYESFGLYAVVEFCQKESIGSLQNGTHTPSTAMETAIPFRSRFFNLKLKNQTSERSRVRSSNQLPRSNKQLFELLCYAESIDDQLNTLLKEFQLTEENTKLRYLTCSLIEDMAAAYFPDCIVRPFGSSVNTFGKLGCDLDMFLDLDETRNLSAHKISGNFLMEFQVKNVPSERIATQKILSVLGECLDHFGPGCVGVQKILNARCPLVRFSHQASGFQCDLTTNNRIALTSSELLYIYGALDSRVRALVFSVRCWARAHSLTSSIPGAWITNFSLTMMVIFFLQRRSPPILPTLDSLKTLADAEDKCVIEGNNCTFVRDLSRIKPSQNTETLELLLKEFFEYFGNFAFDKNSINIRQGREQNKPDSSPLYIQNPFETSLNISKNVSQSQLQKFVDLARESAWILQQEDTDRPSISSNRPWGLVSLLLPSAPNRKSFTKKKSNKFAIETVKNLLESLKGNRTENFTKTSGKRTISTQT
# Compound: Cc1cc(ccc1-c1ccccc1)C(=O)N1CCCN(CC1)C(=O)CCl [compound 10]
# Experiment: probe-labelled cysteine peptide fold change vs DMSO (competition) (log2 fold change); higher = less target engagement (more negative = stronger competition)
# Conditions: THP-1, incubation time: 4 h
# 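Further: competitive profiling in live THP-1 cells: cysteine peptides tagged with an iodoacetamide desthiobiotin (IA-DTB) probe, intensity after compound treatment relative to DMSO-treated cells.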
target,measurement,setting,value
MYH9_P35579_790_ITDVIIGFQACCR (UniProt P35579),probe-labelled cysteine peptide fold change,10 µM,-0.125
same,probe-labelled cysteine peptide fold change,50 µM,-0.23
MTMR6_Q9Y217_383_CGQLDGDPK (UniProt Q9Y217),probe-labelled cysteine peptide fold change,10 µM,0.14
same,probe-labelled cysteine peptide fold change,50 µM,0.0321
MTR_Q99707_1081_DSASTEPYYCLSDFIAPLHSGIR (UniProt Q99707),probe-labelled cysteine peptide fold change,10 µM,-0.0513
same,probe-labelled cysteine peptide fold change,50 µM,0.00578
MYBBP1A_Q9BQG0_623_SPAESCDLLGDIQTCIR (UniProt Q9BQG0),probe-labelled cysteine peptide fold change,10 µM,-0.0385
same,probe-labelled cysteine peptide fold change,50 µM,-0.16
MTHFS_P49914_180_EQICLQVPVNENDMK (UniProt P49914),probe-labelled cysteine peptide fold change,10 µM,0.217
same,probe-labelled cysteine peptide fold change,50 µM,0.276
MYBBP1A_Q9BQG0_890_RYCHDLGER (UniProt Q9BQG0),probe-labelled cysteine peptide fold change,10 µM,0.104
same,probe-labelled cysteine peptide fold change,50 µM,0.125
MYCBP2_O75592_4669+4672_QLEGTECPLHVVHPPTGEEFALGCGVCR (UniProt O75592),probe-labelled cysteine peptide fold change,10 µM,-0.0938
same,probe-labelled cysteine peptide fold change,50 µM,0.0189
MTPAP_Q9NVV4_82_TVLIHCPEK (UniProt Q9NVV4),probe-labelled cysteine peptide fold change,10 µM,0.09
same,probe-labelled cysteine peptide fold change,50 µM,-0.111

# A portion from further up:
target,measurement,setting,value
MYBBP1A_Q9BQG0_890_RYCHDLGER (UniProt Q9BQG0),probe-labelled cysteine peptide fold change,50 µM,0.125
MYCBP2_O75592_4669+4672_QLEGTECPLHVVHPPTGEEFALGCGVCR (UniProt O75592),probe-labelled cysteine peptide fold change,10 µM,-0.0938

# Source: the supplement of paper PMC12067093, “Discovery and optimisation of a covalent ligand for TRIM25 and its application to targeted protein ubiquitination” (Chemical Science, 2025)
